Not every detail of the peptide structures is certain; ends, links or a residue may be inferred. At least one compound was matched to its structure with a doubt left. *1 amine or outer side, *2 acyl side, *3 side chain or, on linkers, in order; H or OH if unused. Where a SMILES comes first, the peptide text is derived from it. Bridges are numbered along the chain shown (N, C = ends). [ ]: non-standard residue; d: D form. The star is where a group is joined. NH(1-deoxy-D-glucityl) = OC[C@@H](O)[C@@H](O)[C@H](O)[C@@H](O)CN*; DOTA = O=C(O)CN1CCN(CC(=O)O)CCN(CC(=O)*)CCN(CC(=O)O)CC1; Pro(cis-4-F) = O=C(O)[C@@H]1C[C@H](F)CN1; oXylylene = c1ccc(C[*:2])c(C[*:1])c1; Glutaryl = O=C(CCCC(=O)[*:2])[*:1]; Hyp = O=C(O)[C@@H]1C[C@@H](O)CN1; Dap(Me2) = CN(C)C[C@H](N)C(=O)O; Cit = NC(=O)NCCC[C@H](N)C(=O)O; Butoxycarbonyl = CCCCOC(=O)*; Nva = CCC[C@H](N)C(=O)O; Pentanoyl = CCCCC(=O)*
How the values were obtained:
[1] = target: T1, uPAR-expressing HEC-265 human endometrial adenocarcinoma cells (Homo sapiens, UniProt Q03405); assay: Competitive FACS binding assay; details: pIC50 category of FACS binding
T1 construct: Cell surface uPAR-expressing HEC-265 human endometrial adenocarcinoma cells; host or cells: HEC-265
Method: In order to determine binding of compounds according to the present invention to uPAR-expressing cells, a competitive FACS binding assay was established.
Cell surface uPAR-expressing HEC-265 human endometrial adenocarcinoma cells (Japanese Collection of Research Bioresources, #JCRB1142) were cultured in MEM Eagle with stable glutamine (Pan Biotech, #P04-09500) including 15% fetal bovine serum (Pan Biotech, #P30-3306) and 100 U/ml penicillin and 100 µg/mL streptomycin (Pan Biotech, #P06-07100). Cells were detached with Cell Dissociation Buffer (Thermo Scientific, #13151014) and washed in FACS buffer (PBS (Pan Biotech, #P04-36500) including 1% BSA (SeraCare, #AP-4510-80). Cells were diluted in FACS buffer to a final concentration of 500.000 cells per ml and 200 µl of the cell suspension are transferred to a u-shaped non-binding 96-well plate (Greiner Bio-One, #650901).
For IC50 determination, cells were incubated with 10 nM Bio--Ttds--Ttds--Ttds--Ttds-D-Cha-FsrYLWS-NH2) in the presence of increasing concentrations of non-labeled test compounds at 4°C for 1 hour. Cells were washed twice in FACS buffer. An additional incubation step with 1 µg/mL APC-Streptavidin (Miltenyi; #130-106-791) in 50 µL FACS buffer for 30 minutes on ice was performed followed by two washes with FACS buffer. Cells were resuspended in 200 µl FACS buffer and analyzed in an Attune NxT flow cytometer. Median fluorescence intensities (APC channel) were calculated by Attune NxT software and plotted against peptide concentrations. Four parameter logistic (4PL) curve fitting and pIC50 calculations were performed using ActivityBase software.

Chains of the proteins cited; added tags and fusions are not shown. Residues count along the entry.
UniProt Q03405, 23-335: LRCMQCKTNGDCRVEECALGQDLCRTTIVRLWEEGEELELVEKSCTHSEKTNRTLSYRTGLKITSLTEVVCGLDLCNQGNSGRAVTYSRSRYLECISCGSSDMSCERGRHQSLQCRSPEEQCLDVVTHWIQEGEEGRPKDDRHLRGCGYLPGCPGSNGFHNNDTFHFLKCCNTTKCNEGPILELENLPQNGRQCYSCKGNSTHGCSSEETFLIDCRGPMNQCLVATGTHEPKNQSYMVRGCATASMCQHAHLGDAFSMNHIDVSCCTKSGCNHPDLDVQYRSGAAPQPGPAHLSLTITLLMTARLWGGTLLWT
UniProt Q03405, 23-303: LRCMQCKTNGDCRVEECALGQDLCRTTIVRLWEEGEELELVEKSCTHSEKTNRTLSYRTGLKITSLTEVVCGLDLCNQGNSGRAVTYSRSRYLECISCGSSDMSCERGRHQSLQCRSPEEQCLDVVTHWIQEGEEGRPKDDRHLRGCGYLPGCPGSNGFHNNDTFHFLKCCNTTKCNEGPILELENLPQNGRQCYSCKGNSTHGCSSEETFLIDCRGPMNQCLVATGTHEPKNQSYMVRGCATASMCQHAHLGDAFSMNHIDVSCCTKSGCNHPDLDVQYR

human uPAR (uPAR-Fc) = target: T2, human uPAR (uPAR-Fc) (Homo sapiens, UniProt Q03405); assay: Surface plasmon resonance (SPR) assay, single cycle kinetics; assay type: binding; details: pKD category for uPAR SPR activity assay, uPAR-Fc on Protein A-Chip, 25°C
T2 construct: comprising amino acids Leu23-Arg303 according to UniProt entry Q03405.1; purchased R&D Systems 10378-UK-100
Method: Surface plasmon resonance (SPR) is an optical technique used to measure molecular interactions in real time. SPR occur when plane-polarized light hits a metal film under total internal reflection conditions. SPR signal is directly dependent on the refractive index of the medium on the sensor chip. In an SPR experiment, one molecule (i.e. uPAR) is immobilized on a sensor chip and binding to a second molecule (i.e. test compounds) is measured under flow. The binding of the compound on the surface changes the refractive index. In responses the reflection angle changes as compounds bind and dissociate on the immobilized protein on the surface. This response is measured in resonance units (RU). The RUs are proportional to the number of molecules bound to the surface. […] Kinetic binding constants and equilibrium binding constants can be derived from the sensorgrams.
Surface plasmon resonance (SPR) studies were performed using a Biacore™ T200 or S200 SPR system (Cytiva, formerly GE Life Sciences) to assess binding of compounds to recombinant uPAR protein.
In this example recombinant protein comprising the extracellular domains of human uPAR (uPAR-Fc, R&D Systems, CAT 10378-UK-100, comprising amino acids Leu23-Arg303 according to UniProt entry Q03405.1 and Fc region of human IgG1 at the C-terminus) was immobilized on a Protein A-Chip (Cytiva, CAT 29127555) according to the supplier's instructions. uPAR-Fc was diluted in Running Buffer (10 mM HEPES, 150 mM NaCl, 50 µM EDTA, 0.1% DMSO, 0.05% Tween-20, pH 7.4) to a final concentration of 100 nM and then flushed over the Protein A-Chip to immobilized ~2000 RUs.
Stock solutions of test compounds were prepared by dissolving each compound in DMSO. DMSO stock solution were diluted 1: 1000 in Running Buffer without DMSO. Further sequential dilutions were made with Running Buffer containing 0.1% DMSO. SPR binding analyses were performed in Single Cycle Kinetic (SCK) mode at 25°C. Flow cell without immobilized uPAR-Fc served as reference flow cell. The chip was regenerated with 10 mM Glycine, pH 1,5 to remove the uPAR-Fc from the chip surface after each SCK run. After every three SCK measurements, a blank run with Running Buffer instead of test compound was included to correct for baseline drifts (double reference substraction method). […]
For each test compound, SPR raw data sensorgrams were recorded using the Biacore™ T200 or S200 control software. Sensorgrams were processed and analyzed with the Biacore™ Insight Evaluation software. […] The dissociation constant (KD) was calculated from the double reference subtracted sensorgrams using the 1:1 Langmuir binding model. The pKD value (negative decadic logarithm of dissociation constant) was calculated using Microsoft Excel.

Row | Structure (SMILES) | pIC50 CAT [1] | pKD CAT (human uPAR (uPAR-Fc)) | pKD CAT (human uPAR (uPAR-Fc); single cycle kinetics)
1 | CCCCOC(=O)N[C@H]1CSSC[C@@H](C(N)=O)NC(=O)[C@H](CN(C)C)NC(=O)[C@H]([C@@H](C)CC)NC(=O)[C@@H]2C[C@@H](O)CN2C(=O)[C@@H]2C[C@H](F)CN2C(=O)[C@H](Cc2ccccc2)NC(=O)[C@H](Cc2ccc(O)cc2)NC(=O)[C@H](CCCCNC(=O)CN2CCN(CC(=O)O)CCN(CC(=O)O)CCN(CC(=O)O)CC2)NC(=O)[C@H]([C@@H](C)O)NC1=O [UPAR-129, Butoc-[Cys-Thr-Lys(DOTA)-Tyr-Phe-4Cfp-Hyp-Ile-Dmdp-Cys]-NH2] (Butoxycarbonyl-CTK(DOTA)YF[Pro(cis-4-F)][Hyp]I[Dap(Me2)]C-NH2; disulfide 1-10) | B (pIC50 values between 7.5 and 7.9) | C (pKD values from 7.0 to 8.0) | 
2 | CCCCC(=O)N[C@H]1CSCc2ccccc2CSC[C@@H](C(N)=O)NC(=O)[C@H](CCC)NC(=O)[C@H]([C@@H](C)CC)NC(=O)[C@@H]2C[C@@H](O)CN2C(=O)[C@@H]2CCCN2C(=O)[C@H](Cc2ccccc2)NC(=O)[C@H](Cc2ccc(O)cc2)NC(=O)[C@H](CCC(N)=O)NC(=O)[C@H](CCCNC(=N)N)NC1=O [UPAR-258, Pent-[Cys(2MeBn)-Arg-Gln-Tyr-Phe-Pro-Hyp-Ile-Nva-Cys]-NH2] (Pentanoyl-CRQYFP[Hyp]I[Nva]C-NH2; linker 1-10 via oXylylene) | D (pIC50 values ≤ 6.9) | D (pKD values ≤ 7.0) | 
3 | CCC[C@H](NC(=O)CCCC(=O)NC[C@H](O)[C@@H](O)[C@H](O)[C@H](O)CO)C(=O)N[C@H]1CSSC[C@@H](C(N)=O)NC(=O)[C@H](CCC)NC(=O)[C@H]([C@@H](C)CC)NC(=O)[C@@H]2C[C@@H](O)CN2C(=O)[C@@H]2CCCN2C(=O)[C@H](Cc2ccccc2)NC(=O)[C@H](Cc2ccc(O)cc2)NC(=O)[C@H](CCC(N)=O)NC(=O)[C@H](CCCNC(N)=O)NC1=O [UPAR-268, AGLU-Glutar-Nva-[Cys-Cit-Gln-Tyr-Phe-Pro-Hyp-Ile-Nva-Cys]-NHz] ({NH(1-deoxy-D-glucityl)-Glutaryl}-[Nva]C[Cit]QYFP[Hyp]I[Nva]C-NH2; disulfide 2-11) | A (pIC50 values ≥8.0) | A (pKD values ≥ 8.8) | 
4 | CCCCC(=O)N[C@H]1CSSC[C@@H](C(N)=O)NC(=O)[C@H](CCC)NC(=O)[C@H]([C@@H](C)CC)NC(=O)[C@@H]2C[C@@H](O)CN2C(=O)[C@@H]2CCCN2C(=O)[C@H](Cc2ccccc2)NC(=O)[C@H](Cc2ccc(O)cc2)NC(=O)[C@H](CCC(N)=O)NC(=O)[C@H](CCC(=O)NC[C@H](O)[C@@H](O)[C@H](O)[C@H](O)CO)NC1=O [UPAR-386, Pent-[Cys-Glu(AGLU)-Gln-Tyr-Phe-Pro-Hyp-Ile-Nva-Cys]-NH2] (Pentanoyl-CE(NH(1-deoxy-D-glucityl))QYFP[Hyp]I[Nva]C-NH2; disulfide 1-10) | A (pIC50 values ≥8.0) |  | A (pKD values ≥ 8.8)

— patent EP4610269A1, “UROKINASE PLASMINOGEN ACTIVATOR SURFACE RECEPTOR (UPAR) LIGANDS FOR DIAGNOSTIC OR THERAPEUTIC USE” (3B Pharmaceuticals GmbH, priority 2024, dated 2025)
